# Reference: PubChem BioAssay AID2061305 (National Center for Advancing Translational Sciences (NCATS), 2025)
# Inconclusive results, whose numbers are uncertain, are shown with a selection of clear calls. Potencies beside an inconclusive call are fits to weak or partial responses and may not hold up. Active and inactive are the calls of the source. Calls come from the whole dose curve; as a rule, active = well fitted inhibition curve with a large enough effect; inconclusive = small, poorly fitted or top-dose-only effect; inactive = flat fitted curve, though single readings scatter.
# Experiment: Identification of antibody-drug conjugate (ADC) payloads which are substrates of ATP-binding cassette drug efflux transporters: ABCB1-HeLa-KB-3-1 cell line
# Settings: KB-3-1 (HeLa derivative) viability, CellTiter-Glo, 48 h
# From the text: Antibody-drug conjugates (ADCs) feature an antibody recognizing a specific protein joined to a potent toxic payload. Numerous antibody-drug conjugates have received FDA approval; however, clinical resistance arises. Resistance mechanisms include decreased expression or mutation of the antibody target, impaired payload release, or increased expression of ATP-binding cassette (ABC) efflux transporters associated with multidrug resistance. We therefore sought to characterize the interaction of ABC multidrug transporters with ADC payloads. We performed a high-throughput screen with 27 common ADC payloads using cells lines expressing ABC transporters P-glycoprotein (P-gp, encoded by ABCB1) or ABCG2 (encoded by ABCG2). Confirmatory assays were also performed using cells transfected to express P-gp, ABCG2, or MRP1 (encoded by ABCC1). Several commonly used ADC payloads were substrates of P-gp, including calicheamicin gamma1, monomethyl auristatin E, DM1, and DM4. All the pyrrolobenzodiazepines tested - SJG136, SGD-1882, SG2057, and SG3199 - were substrates of P-gp, ABCG2, and MRP1. […] These findings highlight the risk of transporter-mediated resistance with certain ADC payloads and underscore the importance of selecting payloads that evade ABC transporter recognition in future ADC development.
# HEK-293 cells were transfected with empty vector (pcDNA) or vector containing the human ABCB1 (MDR-19), ABCG2 (R-5), or ABCC1 gene (MRP1) and were maintained in EMEM with 2 mg/mL G418 added to maintain transporter expression. The HeLa derivative KB-3-1 and the P-gp overexpressing KB-8-5-11 subline were maintained in DMEM; KB-8-5-11 additionally received 100 ng/mL colchicine. H460 parental cells were obtained from the Division of Cancer Treatment and Diagnosis Tumor Repository, National Cancer Institute at Frederick, MD and were cultured in RPMI. The ABCG2 expressing subline H460 MX20 was generated by selecting H460 cells in 20 nM mitoxantrone. Media in all cases was supplemented with 10% FBS and 1% penicillin-streptomycin. […]
row,Compound,Potency
1,CCN(C(C)=O)[C@H]1CO[C@@H](O[C@H]2[C@H](O[C@H]3C#C/C=C\C#C[C@]4(O)CC(=O)C(NC(=O)OC)=C3/C4=C\CSSSC)O[C@H](C)[C@@H](NO[C@H]3C[C@H](O)[C@H](SC(=O)c4c(C)c(I)c(O[C@@H]5O[C@@H](C)[C@H](O)[C@@H](OC)[C@H]5O)c(OC)c4OC)[C@@H](C)O3)[C@@H]2O)C[C@@H]1OC,active: 8.4 nM
2,Cc1nc(Nc2ncc(C(=O)Nc3c(C)cccc3Cl)s2)cc(N2CCN(CCO)CC2)n1,"inconclusive: 9410 nM [falling, partial curve]"
3,CC(C)(C)OC(=O)Nc1ccc2[nH]c(C(=O)N3C[C@@H](CCl)c4c3cc(O)c3ccccc43)cc2c1,active: 5.9 nM
